Screen size: about 360,000 compounds; about 1,100 (0.31%) were called active. This list was built around the results that the source calls inconclusive (neither active nor inactive); the mix of calls is not that of the screen. Cut-off read from the data, not from the text of the source: active = activity change below about -80%; inconclusive = mostly about -51% to -80%; inactive = weaker than that.
Each compound was assayed against RAC-alpha serine/threonine-protein kinase (Homo sapiens) (UniProt P31749) (assay: HTS Assay for Inhibitors of Akt Phophorylation: Primary Screen). Conditions: Neuro2A IGF-stimulated pAkt S473 HTRF, 20 min; at 50 µM, stronger effect = lower value.
How it was run: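 Single-point screen (50 µM final compound) in Neuro2A cells stimulated 20 min with 6 nM IGF at 37 deg C. After lysis, Ser473-phosphorylated Akt read by HTRF (ex 330 nm, em 615/665 nm) as the 665/615 ratio.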
% is set by controls: 0 for no effect and ±100 for the full control effect.

| SMILES | activity change |
| --- | --- |
| COc1ccc(-c2cc(C(F)(F)F)nc(N3CCN(C)CC3)n2)cc1OC | inconclusive: -54.5% |
| CCn1c(CSc2nc3ccccc3s2)nnc1SCC(=O)c1ccc2c(c1)OCCO2 | active: -108% |
| COc1ccc(Cl)cc1C(=O)NCC(c1ccco1)N(C)C (centres undefined) | inactive |
| CC(=O)c1cn(CC(=O)Nc2ccccc2C)c2ccccc12 | active: -111% |
| CN(c1ccccc1)S(=O)(=O)c1cccc(NC(=O)c2cc(=O)c3ccccc3o2)c1 | inactive |
| Cc1ccc(Cn2c(SCC(=O)Nc3cc(C)on3)nc3ccccc3c2=O)cc1 | inconclusive: -61.5% |
| OCCC1CN(Cc2ccc3cc(Cl)ccc3n2)CCN1Cc1ccsc1 (centres undefined) | inactive |
| CC1(C)CNC(=O)c2sc(NC(=O)CN3CCOCC3)nc2C1 | inconclusive: -66.7% |
| O=C(C/C=N/OCc1ccccc1F)c1cnc(-c2ccc(Cl)cc2)s1 | inactive: -10.5% |
| CC(=O)SCCC(=O)Nc1ccccc1 | inconclusive: -68.8% |
| CCc1c(C)nc2ncnn2c1N1CCC(C(=O)Nc2ccccc2)CC1 | inconclusive: -78.7% |
| Cc1c(C(=O)Nc2ccc(Cl)cc2)c2ccccn2c1C(=O)c1ccccc1 | inconclusive: -51.9% |
| COc1cnn(-c2cccc(C(F)(F)F)c2)c(=O)c1Cl | inactive |
| O=C(Nc1ccc(N2CCOCC2)c(Cl)c1)c1ccc(F)cc1 | inactive |
| Cc1ccc2[nH]c3c(c2c1)CN(C(=O)CN1CCN(c2cccc(C)c2C)CC1)CC3 | inactive |
| Cc1c(-c2nn(C)c(=O)c3ccccc23)oc2ccc(F)cc2c1=O | inconclusive: -54.9% |
| Cc1sc2nc(SC(C)C)nc(N)c2c1C | inconclusive: -73.8% |
| O=C(Nc1ccc(CN2CCOCC2)cc1)c1ccc(-c2ccc(Br)cc2)o1 | inconclusive: -56.9% |
| O=C(Nc1ccon1)c1ccc(Cl)s1 | inconclusive: -75.4% |
| CC1(C)CC(=O)c2c(nc3ccccc3c2N)C1 | inconclusive: -61% |

Retrieved by structure from the entries so far (three):

| SMILES | activity change |
| --- | --- |
| Cc1c(-c2nn(C)c(=O)c3ccccc23)oc2ccc(F)cc2c1=O | inconclusive: -54.9% |
| Cc1ccc(Cn2c(SCC(=O)Nc3cc(C)on3)nc3ccccc3c2=O)cc1 | inconclusive: -61.5% |
| O=C(C/C=N/OCc1ccccc1F)c1cnc(-c2ccc(Cl)cc2)s1 | inactive: -10.5% |

The list goes on:

| SMILES | activity change |
| --- | --- |
| O=C(COC(=O)c1cc(S(=O)(=O)N2CCOCC2)c(Cl)cc1Cl)Nc1ncc(C(F)(F)F)cc1Cl | inconclusive: -65% |
| Nc1ccc(C2CCCc3nonc32)c2nonc12 (centres undefined) | active: -113% |
| COC(=O)c1cc2c(C)cc3ccc(C)cn3c-2c1C(=O)OC | inconclusive: -59.5% |
| Cc1cccc(N2CCN(C(C(=O)NCc3ccccc3)c3ccc(F)cc3)CC2)c1C (centres undefined) | inactive |
| Cn1c(/C(C#N)=C(\O)COc2ccc3ccccc3c2)nc2ccccc21 | inconclusive: -69% |
| CS(=O)(=O)N1CCN(c2ccc(NC(=O)c3ccc(-c4ccc(Cl)cc4)o3)cc2)CC1 | inconclusive: -53.4% |
| COC(=O)c1ccc(C(=O)OC)c(NC(=O)CSc2nnc(-c3ccccc3Cl)o2)c1 | inconclusive: -79.7% |
| O=C(NCc1ccc2c(c1)OCO2)c1ccc2c(=O)n(C3CCCC3)c(=O)[nH]c2c1 | inconclusive: -69.5% |
| Cc1csc(NC(=O)CSc2nncn2C)n1 | inconclusive: -73.5% |
| COc1ccc(-c2nn3c(COc4ccccc4)nnc3s2)cc1OC | active: -117% |
| O=C(NCCCN1CCCC1=O)Nc1ccc(Cl)cc1 | inconclusive: -76.9% |
| CCCCCCc1nc2c(=O)[nH]c3ccccc3c2o1 | active: -87.5% |
| Cc1oc2c(c1C(=O)c1ccccc1)C(=O)C(=O)c1ccccc1-2 | inconclusive: -56.3% |
| CC(C)(C)NC(=O)CSc1nncn1NCc1cccc2ccccc12 | active: -113% |
| CC1CCN(C(=O)c2ccc(N(C)S(C)(=O)=O)cc2)CC1 | inconclusive: -56.6% |
| Cc1noc(C)c1COc1cccc(C(=O)NCc2ccccc2Cl)c1 | inconclusive: -79.7% |
| Cc1ccccc1NC(=S)NCCC(c1ccccc1)c1ccccc1 | inactive |
| Cc1ccc(S(=O)(=O)CCc2nc3ccccc3s2)cc1 | active: -101% |
| O=C1CSc2ccc(C(=O)NCCC3=CCCCC3)cc2N1 | inconclusive: -76.3% |
| C/C=C/c1ccc(OCCCNC)c(OC)c1 | active: -119% |

| SMILES | activity change |
| --- | --- |
| COC(=O)c1ccc(CSc2ncnc3c2oc2ccccc23)o1 | inconclusive: -67.1% |
| CCCSc1cc(N2CCN(C)CC2)nc(-c2ccc(OC)cc2)n1 | active: -88.6% |
| O=C(NCc1ccccc1)C1=C[C@H](c2csc3ccccc23)C[C@H](OCc2ccc(CO)cc2)O1 | inactive |
| N/C(=N\O)c1cn(Cc2ccccc2Cl)c2ccccc12 | inactive |
| COc1ccccc1NC(=O)CCC(=O)Nc1nnc(C(F)(F)F)s1 | inconclusive: -60.6% |
| Cc1ccc(C(=O)NC(=S)Nc2ccc(-c3cc4ccccc4oc3=O)cc2)c(C)c1 | inconclusive: -55.9% |
| COCCNC(=O)c1cc2ncc(Br)cn2n1 | inconclusive: -71.6% |
| N#CCSc1ncnc2sc3c(c12)CCC3 | inconclusive: -73.1% |
| COc1ccc(CN2C(=O)C(CC(=O)NCCCCc3ccccc3)CC(C(=O)N(C)C)=C2C)cc1 (centres undefined) | inactive |
| CCOC(=O)C1=C(C)NC2=C(C(=O)C(C(=O)OCC)C(c3ccco3)C2)C1c1ccccn1 (centres undefined) | inconclusive: -57.7% |
| O=[N+]([O-])c1cccnc1N1CCC(c2cc(-c3ccc(Cl)cc3Cl)n[nH]2)CC1 | inactive: 0.194% |
| CCCCNC(=O)CCn1c(=S)[nH]c2cc3c(cc2c1=O)OCO3 | inconclusive: -59.6% |
| CCC(=O)c1ccc(OCC(=O)N(Cc2nnc(-c3ccccc3Cl)o2)C2CC2)cc1 | inactive |
| Cc1ccc(NC(=O)CCNS(=O)(=O)c2ccc3c(c2)oc(=O)n3C)cc1C | inconclusive: -72.3% |
| Cc1ccc(C)c(S(=O)(=O)N2CCN(CC(=O)NC(=O)NCc3ccccc3)CC2)c1 | inconclusive: -70.7% |
| O=S(=O)(NCC(c1ccccc1)N1CCNCC1)c1ccc(Cl)cc1 (centres undefined) | inconclusive: -76.6% |
| CCOc1ccc(S(=O)(=O)N2CCN(C)CC2)cc1NC(=O)c1ccccc1F | inactive |
| C/C(N)=C(/C#N)C(=O)CSc1nnc(-c2ccccc2Br)o1 | inconclusive: -51% |
| Cc1ccc(-c2nnc(N3CCCCC3)c3ccccc23)cc1S(=O)(=O)NCC1CCCO1 (centres undefined) | inconclusive: -68.2% |

— PubChem BioAssay AID651550 (National Center for Advancing Translational Sciences (NCATS), 2012)
